Source: article PMC6820371, “Terbium-161 for PSMA-targeted radionuclide therapy of prostate cancer” (European Journal of Nuclear Medicine and Molecular Imaging, 2019)

Test system: PC-3 PIP tumors and kidneys of mice
Assay: Dosimetry estimation for the in-vivo therapy
Details: for Estimated mean specific absorbed dose to the PC-3 PIP tumors: tumors of 80 mm^3

| SMILES | Mean specific absorbed dose to the kidneys [Gy/MBq] | Mean absorbed dose to the kidneys (5.0 MBq/mouse) [Gy] | Mean absorbed dose to tumors (5.0 MBq/mouse) [Gy] | Mean absorbed dose to the kidneys (10 MBq/mouse) [Gy] | Mean absorbed dose to tumors (10 MBq/mouse) [Gy] | Estimated mean specific absorbed dose to the PC-3 PIP tumors [Gy/MBq] |
| --- | --- | --- | --- | --- | --- | --- |
| O=C([O-])CN1CCN(CC(=O)[O-])CCN(CC(=O)NCC2CCC(C(=O)NC(Cc3ccc4ccccc4c3)C(=O)NCCCCC(NC(=O)NC(CCC(=O)O)C(=O)O)C(=O)O)CC2)CCN(CC(=O)[O-])CC1.[161Tb+3] (stereo not drawn) [^161Tb-PSMA-617] | 0.062 | 0.31 | 27 | 0.62 | 53 | 5.34 |
| O=C([O-])CN1CCN(CC(=O)[O-])CCN(CC(=O)NCC2CCC(C(=O)N[C@@H](Cc3ccc4ccccc4c3)C(=O)NCCCC[C@H](NC(=O)N[C@@H](CCC(=O)O)C(=O)O)C(=O)O)CC2)CCN(CC(=O)[O-])CC1.[177Lu+3] (stereo partly drawn) [^177Lu-PSMA-617, reference compound] | 0.045 | 0.225 | 20 | 0.45 | 39 | 3.90 |
